# Results published in article PMC12794514.
# These are yes or no findings as the source states them, for the method shown. In cells and extracts the contact can be indirect. Some binding calls cover weakened binding; strength is not graded here. Where a sequence is shown, tags or fusion partners need not be part of it.
# Columns and labels:
# [1] = target: T1, MTDH as used in the reciprocal co-immunoprecipitations of Supplemental Fig. S4G-J (human) (UniProt Q86UE4); assay: co-IP; Supplemental Fig. S4H, J: reciprocal, MTDH immunoprecipitated, ZDHHC or ZDHHS detected; NETN buffer, anti-Flag affinity gel or anti-HA magnetic beads, 4°C overnight
# T1 sequence: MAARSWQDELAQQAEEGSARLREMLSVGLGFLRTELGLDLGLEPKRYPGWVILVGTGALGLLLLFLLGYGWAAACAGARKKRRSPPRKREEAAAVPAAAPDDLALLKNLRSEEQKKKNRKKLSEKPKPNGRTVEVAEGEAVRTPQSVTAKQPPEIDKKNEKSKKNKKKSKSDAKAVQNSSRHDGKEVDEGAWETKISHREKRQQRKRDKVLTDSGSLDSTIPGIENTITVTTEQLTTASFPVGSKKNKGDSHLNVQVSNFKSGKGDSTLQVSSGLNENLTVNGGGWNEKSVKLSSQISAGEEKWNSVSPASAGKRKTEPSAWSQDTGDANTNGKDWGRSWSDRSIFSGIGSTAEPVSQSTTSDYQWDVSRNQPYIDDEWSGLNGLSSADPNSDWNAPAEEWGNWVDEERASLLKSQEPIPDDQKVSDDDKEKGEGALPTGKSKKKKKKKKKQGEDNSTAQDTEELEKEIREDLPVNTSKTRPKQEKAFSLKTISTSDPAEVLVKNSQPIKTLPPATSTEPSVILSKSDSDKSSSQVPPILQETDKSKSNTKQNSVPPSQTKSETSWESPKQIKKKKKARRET
# SF-tagged ZDHHC1 = target: T2, SF-tagged ZDHHC1 (UniProt Q8WTX9); assay: co-IP; Supplemental Fig. S4G, I: ZDHHC or ZDHHS immunoprecipitated, MTDH detected; NETN buffer, anti-Flag affinity gel or anti-HA magnetic beads, 4°C overnight
# T2 sequence: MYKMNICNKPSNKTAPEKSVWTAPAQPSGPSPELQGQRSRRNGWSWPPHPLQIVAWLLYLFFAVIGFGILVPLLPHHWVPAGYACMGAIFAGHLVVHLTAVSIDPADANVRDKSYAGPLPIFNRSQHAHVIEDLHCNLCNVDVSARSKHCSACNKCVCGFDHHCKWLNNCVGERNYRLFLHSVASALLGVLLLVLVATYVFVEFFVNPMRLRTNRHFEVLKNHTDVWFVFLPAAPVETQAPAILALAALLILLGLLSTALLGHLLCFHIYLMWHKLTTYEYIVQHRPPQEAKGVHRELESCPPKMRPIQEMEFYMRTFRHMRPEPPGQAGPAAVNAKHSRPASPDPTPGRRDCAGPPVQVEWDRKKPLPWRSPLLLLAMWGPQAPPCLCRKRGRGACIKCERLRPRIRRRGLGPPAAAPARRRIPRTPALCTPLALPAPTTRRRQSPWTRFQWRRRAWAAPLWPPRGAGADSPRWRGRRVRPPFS
Binder,binding [1],binding (SF-tagged ZDHHC1)
"SF-tagged ZDHHC1 (enzyme, UniProt Q8WTX9 1-485) MYKMNICNKPSNKTAPEKSVWTAPAQPSGPSPELQGQRSRRNGWSWPPHPLQIVAWLLYLFFAVIGFGILVPLLPHHWVPAGYACMGAIFAGHLVVHLTAVSIDPADANVRDKSYAGPLPIFNRSQHAHVIEDLHCNLCNVDVSARSKHCSACNKCVCGFDHHCKWLNNCVGERNYRLFLHSVASALLGVLLLVLVATYVFVEFFVNPMRLRTNRHFEVLKNHTDVWFVFLPAAPVETQAPAILALAALLILLGLLSTALLGHLLCFHIYLMWHKLTTYEYIVQHRPPQEAKGVHRELESCPPKMRPIQEMEFYMRTFRHMRPEPPGQAGPAAVNAKHSRPASPDPTPGRRDCAGPPVQVEWDRKKPLPWRSPLLLLAMWGPQAPPCLCRKRGRGACIKCERLRPRIRRRGLGPPAAAPARRRIPRTPALCTPLALPAPTTRRRQSPWTRFQWRRRAWAAPLWPPRGAGADSPRWRGRRVRPPFS",binds,
"MTDH as used in the reciprocal co-immunoprecipitations of Supplemental Fig. S4G-J (protein, UniProt Q86UE4 1-582) MAARSWQDELAQQAEEGSARLREMLSVGLGFLRTELGLDLGLEPKRYPGWVILVGTGALGLLLLFLLGYGWAAACAGARKKRRSPPRKREEAAAVPAAAPDDLALLKNLRSEEQKKKNRKKLSEKPKPNGRTVEVAEGEAVRTPQSVTAKQPPEIDKKNEKSKKNKKKSKSDAKAVQNSSRHDGKEVDEGAWETKISHREKRQQRKRDKVLTDSGSLDSTIPGIENTITVTTEQLTTASFPVGSKKNKGDSHLNVQVSNFKSGKGDSTLQVSSGLNENLTVNGGGWNEKSVKLSSQISAGEEKWNSVSPASAGKRKTEPSAWSQDTGDANTNGKDWGRSWSDRSIFSGIGSTAEPVSQSTTSDYQWDVSRNQPYIDDEWSGLNGLSSADPNSDWNAPAEEWGNWVDEERASLLKSQEPIPDDQKVSDDDKEKGEGALPTGKSKKKKKKKKKQGEDNSTAQDTEELEKEIREDLPVNTSKTRPKQEKAFSLKTISTSDPAEVLVKNSQPIKTLPPATSTEPSVILSKSDSDKSSSQVPPILQETDKSKSNTKQNSVPPSQTKSETSWESPKQIKKKKKARRET",,binds
